Several values for one entry are separate records, joined by “and”; a condition that tells them apart may be missing. Equal entries are not always repeated. The list shows a part of the results. Repeats in this data set agree poorly, so a single value says little.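 HEK293T cells were given each compound shortly before transfection with a reporter in which red mCherry is followed by the SARS-CoV-2 frameshift element and then GFP in the −1 frame, so GFP appears only after frameshifting.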

The subject of the assay is HEK293T. The assay is described as follows: percent viability (nuclei count) relative to control; higher = more viable cells. The note with it: 10 µM; 24 h.
As to `CN(Cc1ccccc1)Cc1ccccc1` [dibemethine], the percent viability worked out at 205%.
Regarding `COc1ccc2c(c1)c(-c1ccccc1)nc(=O)n2CC1CC1` [ciproquazone], the percent viability was found to be 188%.
Next, `C=C1CCO[C@]2([C@@H](O)[C@@](C)(O)CO)NC(=O)[C@@]1(O)NC2=O` [bicozamycin]: 182%; `CCCCCCCCCCCCOS(=O)(=O)[O-].[Na+]` [Sodium lauryl sulfate]: 224%; `CCCCC(CC)COc1ccc(-c2nc(-c3ccc(OC)cc3)nc(-c3ccc(OCC(CC)CCCC)cc3O)n2)c(O)c1` (stereo not given): 181%.
Next, `CCOC(=O)[C@H](CCc1ccccc1)N[C@@H](C)C(=O)N1CCC[C@H]1C(=O)O` [enalapril]: 81.7% and 208%.
In the case of `Cc1[nH+]cc(COP(=O)([O-])[O-])c(CN(CCN(CC(=O)[O-])Cc2c(COP(=O)([O-])O)c[nH+]c(C)c2O)CC(=O)[O-])c1O.[Mn].[Na+].[Na+].[Na+]`, the percent viability was determined as 154%.
Next, `COc1cc(N)c(Cl)cc1C(=O)NC1CCN(CCCOc2ccc(F)cc2)CC1OC` (stereo not given) [cisapride]: 218%; `CO[C@@]1(NC(=O)C(C(=O)O)c2ccc(O)cc2)C(=O)N2C(C(=O)O)=C(CSc3nnnn3C)CO[C@@H]21` (stereo not given in full): 306%.
For the molecule `NS(=O)(=O)c1cc2c(cc1C(F)(F)F)NC(Cc1ccccc1)NS2(=O)=O` (stereo not given) [bendroflumethiazide], the percent viability turned out to be 312%.
For the molecule `NC[C@H]1O[C@H](O[C@H]2[C@H](O)[C@@H](O[C@H]3O[C@H](CO)[C@@H](O)[C@H](N)[C@H]3O)[C@H](N)C[C@@H]2N)[C@H](O)[C@@H](O)[C@@H]1O` [Kantrex], the percent viability was determined as 40.9%.
Next, `CN1CCN(c2c(F)cc3c(=O)c(C(=O)O)cn(CCF)c3c2F)CC1` [fleroxacin]: 272%; `CCOC(=O)[C@H](CCc1ccccc1)N[C@@H](C)C(=O)N1Cc2cc(OC)c(OC)cc2C[C@H]1C(=O)O` [moexipril]: 58.6%; `O=S(=O)(c1cccc2cnccc12)N1CCCNCC1` [fasudil]: 199%.
In the case of `COc1ccc(-c2nc(C(F)(F)F)[nH]c2-c2ccc(OC)cc2)cc1` [flumizole], the percent viability stood at 154%.
With `C[C@@H]1C(=O)O[C@H]2C[C@@]34[C@H]5C[C@@H](C(C)(C)C)[C@]36[C@@H](OC(=O)[C@@H]6O)O[C@@]4(C(=O)O5)[C@]21O` [Ginkgolide A], the percent viability came out at 130%.
Take `Cc1ccc(C(=O)N(CCCN)[C@@H](c2nc3cc(Cl)ccc3c(=O)n2Cc2ccccc2)C(C)C)cc1` [ispinesib]: the percent viability worked out at 14.2%.
`C[C@@H](c1nc(-c2ccc(C#N)cc2)cs1)[C@](O)(Cn1cncn1)c1ccc(F)cc1F` [ravuconazole]: the percent viability was found to be 92.9%.
`CCn1nc(C(=O)O)c(=O)c2cc3c(cc21)OCO3` [cinoxacin]: the percent viability was 126%.
In the case of `CN(C)CCC(c1ccc(Br)cc1)c1ccccn1` (stereo not given) it was 58.3%; in that of `Cc1c(OCC(F)(F)F)ccnc1C[S+]([O-])c1nc2ccccc2[nH]1` (stereo not given) [lansoprazole], 328%.
In the case of `COc1cc(N)c(Cl)cc1C(=O)NC1CCN(Cc2ccccc2)CC1` [clebopride] it was 158%.
In the case of `CO/N=C(\C(=O)N[C@@H]1C(=O)N2C(C(=O)O)=C(CSc3nc(=O)c(O)nn3C)CS[C@H]12)c1csc(N)n1` it was 304%; in that of `CCCCC(CC)CCC(CC(C)C)OS(=O)(=O)O` (stereo not given), 243%; in that of `O=C(O)/C=C/c1ccc(Cn2ccnc2)cc1` [ozagrel], 243%.
In the case of `C[C@H]1O[C@@H](O[C@H]2[C@@H](O)C[C@H](O[C@H]3[C@@H](O)C[C@H](O[C@H]4CC[C@@]5(C)[C@H](CC[C@@H]6[C@@H]5CC[C@]5(C)[C@@H](C7=CC(=O)OC7)CC[C@]65O)C4)O[C@@H]3C)O[C@@H]2C)C[C@H](O)[C@@H]1O`, the percent viability was determined as 2.86%.
`CCCC1O[C@@H]2C[C@H]3[C@@H]4CCC5=CC(=O)C=C[C@]5(C)[C@H]4[C@@H](O)C[C@]3(C)[C@]2(C(=O)CO)O1` (stereo not given in full): the percent viability turned out to be 141%.
As for `CC(=O)OC[C@H]1O[C@@H](n2ccc(=O)[nH]c2=O)[C@H](OC(C)=O)[C@@H]1OC(C)=O` [Uridine triacetate], the percent viability worked out at 269%.
Regarding `O=C1NC(c2ccccc2)(c2ccccc2)C(=O)N1COP(=O)(O)O` [fosphenytoin], the percent viability came out at 141%.
In the case of `Cc1ccc(Cl)c(Nc2ccccc2C(=O)O)c1Cl` [meclofenamic acid], the percent viability turned out to be 187%.
Consider `CN1CCCC(n2nc(Cc3ccc(Cl)cc3)c3ccccc3c2=O)CC1` (stereo not given), for which the percent viability stood at 342%.
In the case of `COC(=O)CCC(=O)CN` [Metvixia], the percent viability is 271%.
Next, `CCCCC[C@H](O)CC[C@@H]1[C@H]2Cc3cccc(OCC(=O)O)c3C[C@H]2C[C@H]1O` [Treprostinil]: 206%; `Nc1ccc(S(=O)(=O)Nc2ccc(Cl)nn2)cc1` [sulfachlorpyridazine]: 162%; `CO/N=C(\C(=O)N[C@@H]1C(=O)N2C(C(=O)O)=C(CSc3nnnn3C)CS[C@H]12)c1csc(N)n1`: 270%.
Take `C[C@](N)(Cc1ccc(O)c(O)c1)C(=O)O` [Methyldopa]: the percent viability was determined as 203%.
In the case of `CN1CCN(C2=Nc3cc(Cl)ccc3Nc3ccccc32)CC1`, the percent viability worked out at 136%.
Next, `N[C@H](Cc1ccccc1)C(=O)O`: 118%.
As for `CC(C)(O)c1ccccc1CC[C@@H](SCC1(CC(=O)O)CC1)c1cccc(/C=C/c2ccc3ccc(Cl)cc3n2)c1`, the percent viability was determined as 165%.
Next, `O=C1OC(CN2CCOCC2)CN1/N=C/c1ccc([N+](=O)[O-])o1` (stereo not given) [furaltadone]: 117%.

Values taken from the supplement of paper PMC8256030.
